According to paper PMC8844851 (The Journal of Biological Chemistry, 2022):
No constants are given. Whether binding was seen depends on the method and setting. Binding can be weak; no strength is given.

Molecular target: Gcd11(DII + III) fused to the LexA DNA-binding domain (S. cerevisiae)
Test: two-hybrid; as a8, in a modified reporter strain overexpressing Cdc123

B1: Cdc123 (yeast) (protein, UniProt Q05791 1-360)
chain: MSSQEYTTFIDIPVTRAQVEHCSYSFWSSLYPKYVPKSIVLKSLPKKFIQYLEQDGIKLPQEENSRSVYTEEIIRNEDNDYSDWEDDEDTATEFVQEVEPLIDFPELHQKLKDALNELGAVAPKLNWSAPRDATWILPNNTMKCNEVNELYLLLNASNYIMHDLQRAFKGCVDGDDIKGLKFDLVLRQWCDMNPALEFRVFVKNAHIVGATQRDLNYYDYLDELSDTFKDLIDEIVHDVVLPKFPDKSFVLDVYIPRPFNKIFIVDINPFARKTDSLLFSWNEIAAIAPPKNDVEDYELRLVTRHNTGRFASKEHSENHVPQDLVEASLNPEAIRELTQKWKELLSQQAKEESSDSENET
For B1, the binding was “binds”.
